Data on 63 compounds can be found in PubChem BioAssay AID493014 (National Center for Advancing Translational Sciences (NCATS), 2011).

The list shows a part of the results. The main result of the screen is listed elsewhere. These columns were measured beside it and carry no call. Compounds called inactive in the main read-out are mostly missing here. The note in brackets gives the kind of curve behind each potency; many fits are weak.

The nature of this assay: qHTS Assay to Find Inhibitors of Chronic Active B-Cell Receptor Signaling. The following applies: ABC-DLBCL IkBa-CBG/CBR reporter, luminescence ratio (green luciferase fused to IkBa over red control in TMD8 lymphoma cells), 4 h. In short, it runs like this: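 TMD8 ABC-DLBCL cells carrying doxycycline-inducible green luciferase fused to IkappaBalpha plus unfused red luciferase were exposed to compounds (up to 46 uM) for 4 hrs at 37C. Activity came from the overlap-corrected green/red luminescence ratio.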

Where [1] appears, read: measured here: CBR red luminescence, cell number.

On to `COc1ccc(C(=O)Cc2cc(OC)c(OC)cc2[N+](=O)[O-])cc1`, for which the AC50 under setting [1] was 3.98 µM [falling, partial curve, poor fit].

With `COc1ccc(C(=O)CC(SCC(NC(C)=O)C(=O)O)c2ccc(Cl)cc2)cc1OC` (stereo not drawn), the AC50 under setting [1] is 0.562 µM [falling, full curve, poor fit]. Same read-out and setting: next, `N#Cc1c(-c2ccco2)cc(-c2ccccc2)[nH]c1=O`: 0.708 µM [falling, full curve, poor fit]; `CCCC(=O)Nc1cccc(C(=O)Nc2nccs2)c1`: 12.6 µM [falling, partial curve]. Consider `Cc1cccnc1NC(=S)NC(=O)/C=C/c1ccccc1`, for which, under setting [1], the half-maximal activity concentration (AC50) is 17.8 µM [falling, single point]. Same read-out and setting: next, `C/C(=N\Nc1nc2ccccc2s1)c1cccs1`: 29.1 µM [falling, single point]; `NC(=O)CSc1nc2c(sc3ccccc32)c(=O)n1CCCN1CCOCC1`: 31.6 µM [falling, single point]. On the same count and under the same terms, as for `Cn1c(CN2CCCC2)nc2cc(NC(=O)c3ccc(Cl)cc3)ccc21`, the figure is 17.8 µM [falling, single point]; as for `Cc1ccc(S(=O)(=O)Nc2c(C)n(C)n(-c3ccccc3)c2=O)cc1C(=O)OCC(=O)N1CCCC(C)C1` (stereo not drawn), 4.47 µM [rising, full curve, poor fit]; as for `COc1ccc(-c2c(-c3ccc(OCC(=O)NN)cc3O)n[nH]c2C(F)(F)F)cc1`, 11.6 µM [falling, partial curve].

For `CCOC(=O)/C(=N\Nc1ccc(C(C)=O)cc1)c1csc(Nc2ccccc2)n1`, the concentration at half-maximal activity (AC50) under setting [1] is 7.31 µM [rising, single point]. Still for that read-out and setting: as for `Cc1ccc(-n2nnnc2SCC(=O)N2c3ccccc3NC(=O)C2(C)C)cc1`, the figure is 6.31 µM [rising, single point]; as for `Cc1cc(C(=O)Nc2ccc(N3CCCCC3)cc2)no1`, 7.08 µM [falling, partial curve]. In the case of `CC(C)OP(=O)(OC(C)C)C(Nc1ccccc1)c1ccc2c(c1)OCO2` (stereo not drawn), under setting [1], the AC50 was 18.4 µM [falling, single point]. For `Nc1cc(N)nc(SCC(=O)c2ccccc2)n1`, the AC50 under setting [1] is 35.5 µM [falling, single point].

As for `Cc1csc(=O)n1CCC(=O)OCC(=O)Nc1ccc(S(N)(=O)=O)cc1`, the AC50 under setting [1] is 0.366 µM [rising, full curve, poor fit].

Regarding `Cc1cc(Cn2nnc(-c3ccc(Br)cc3)n2)cc(C)c1O`, the AC50 under setting [1] was 16.4 µM [rising, partial curve, poor fit]. On the same count and under the same terms, next, `COc1cccc(/C=N/NC(=O)c2ccc(-c3ccccc3)cc2)c1O`: 2.59 µM [falling, partial curve].

Take `C[C@H](NC(=O)c1nc[nH]c1C(=O)N1CCN(c2ccccc2)CC1)C(=O)OCc1ccccc1`: where the note is “measured here: IkBa-CBG green luminescence”, the half-maximal activity concentration (AC50) was 3.55 µM [rising, full curve, poor fit]. In the case of `Cc1cccc(C)c1NC(=S)N(CCN1CCCCCC1)Cc1ccco1`, the half-maximal activity concentration (AC50) under setting [1] was 35.5 µM [falling, single point].

As for `CCC(=O)NC(=S)Nc1cccc(NC(=O)c2ccc(Cl)cc2Cl)c1`, the AC50 under setting [1] was 10 µM [falling, partial curve, poor fit].

With `COc1cc(OC)c(C(=O)Nc2ccc(C(=O)c3ccccc3)cc2)cc1OC`, under setting [1], the concentration at half-maximal activity (AC50) was 5.01 µM [rising, partial curve, poor fit]. On the same count and under the same terms, next, `O=C(Cc1cccs1)N1CCC(c2nc3c(nnn3Cc3ccccc3Cl)c(=O)[nH]2)CC1`: 2 µM [falling, full curve, poor fit]; `Cc1ccc2c(c1)N(C(=O)CCC(=O)N1CCC(C(N)=O)CC1)CC(C)O2` (stereo not drawn): 0.112 µM [falling, full curve, poor fit]; `Cc1cc2c(cc1S(=O)(=O)N1CC(C)CC(C)C1)OCC(=O)N2` (stereo not drawn): 0.501 µM [rising, full curve, poor fit]. Same read-out and setting: next, `COc1ccc(CNC(=O)CN(C(=O)CCC(=O)Nc2ccccn2)c2ccc(C)cc2)cc1`: 22.4 µM [falling, partial curve, poor fit]; `COc1cccc(C2C=C(Nc3ccccc3)C(=O)N2c2ccccc2)c1` (stereo not drawn): 16.4 µM [falling, partial curve]. As for `COc1ccc(C2=CC3=C(Br)C(=O)C(C)(OC(=O)c4ccc(Cl)nc4)C(=O)C3=CO2)cc1` (stereo not drawn), the AC50 under setting [1] is 35.5 µM [rising, single point]. `CC(=O)Nc1ccc(Cl)c(-c2nc3ncccc3o2)c1`: the AC50 under setting [1] was 11.2 µM [rising, single point].

With `Cc1cnc2cc(Cl)ccc2c1SCC(=O)O`, the AC50 under setting [1] is 2.82 µM [falling, single point]. On the same count and under the same terms, next, `CN(c1ccc(C(=O)Nc2ccccc2Sc2ccccc2)cc1)S(C)(=O)=O`: 11.2 µM [falling, single point]; `O=C(NN1C(=O)/C(=C/c2ccc(O)c(O)c2)SC1=S)c1ccccc1`: 35.5 µM [rising, single point]; `NC(=O)c1ccccc1NC(=O)c1ccc2c(c1)OCO2`: 17.8 µM [falling, single point]. Consider `O=C(Nc1ccc(F)cc1)c1cnc(-c2ccccc2)nc1-c1ccccc1`, for which the AC50 under setting [1] was 3.16 µM [rising, single point]. For `Cc1cc(NC(=O)c2cc3n(n2)C(C(F)(F)F)CC(c2ccco2)N3)n(-c2ccccc2)n1` (stereo not drawn), the half-maximal activity concentration (AC50) under setting [1] was 23.1 µM [falling, partial curve, poor fit].

Take `COc1ccc(-c2nn(-c3ccccc3)cc2C(=O)NC(=S)N2CCOCC2)cc1OC`: under setting [1], the AC50 was 29.1 µM [rising, single point]. Take `CC1=C(C(=O)Nc2ccccc2)C(c2ccc[nH]2)n2ncnc2N1` (stereo not drawn): the AC50 under setting [1] is 6.51 µM [rising, single point]. Consider `COc1ccc(C(=O)/C=C/C(=O)N(Cc2ccccc2)C(C(=O)NC2CCCCC2)c2ccncc2)c(O)c1` (stereo not drawn), for which the AC50 under setting [1] is 0.58 µM [falling, full curve, poor fit]. `O=C(Nc1cccc(Oc2ccc3c(c2)C(=O)NC3=O)c1)c1cccs1`: the half-maximal activity concentration (AC50) under setting [1] was 18.4 µM [falling, single point].

In the case of `O=C(CCl)N1CCN(S(=O)(=O)c2ccc3c(c2)CCC3)CC1`, the AC50 under setting [1] was 9.2 µM [falling, partial curve]. For the compound `CN(CC(=O)Nc1ccc(Cl)c(Cl)c1)C1CCCCC1`, the AC50 under setting [1] was 15.8 µM [rising, single point]. Still for that read-out and setting: next, `CC(C)(C)C(=O)Nc1cccc(-c2nc3ccccc3c(=O)o2)c1`: 14.1 µM [falling, partial curve, poor fit]. Still for that read-out and setting: as for `CCCN1CCc2c(sc3nc(SC)n(-c4ccccc4)c(=O)c23)C1`, the figure is 35.5 µM [falling, single point].

Turning to `CN1c2ccccc2C(=O)/C(=C\Nc2ccc(F)cc2)S1(=O)=O`, under setting [1], the AC50 is 35.5 µM [falling, partial curve, poor fit]. For the compound `COc1cccc(NC(=O)c2cc3cccc(OC)c3o/c2=N\O)c1`, under setting [1], the half-maximal activity concentration (AC50) was 1.58 µM [falling, partial curve, poor fit]. The same measure, in the same setting: next, `CCOC(=O)C1=C(CC)Nc2ccccc2N=C1NC(=O)c1cccc(S(=O)(=O)N2CCOCC2)c1`: 25.9 µM [rising, single point]; `COc1ccc(C(=O)Nc2ccc(F)cc2F)cc1`: 11.6 µM [falling, partial curve, poor fit]. With `COc1cc(/C=C(\C#N)C(=O)NC(C)C)ccc1OCc1ccc(C(=O)O)cc1`, the AC50 under setting [1] is 7.94 µM [falling, partial curve].

Turning to `COc1ccc(CN2C[C@H](Cc3ccccc3)[C@@H](CC(=O)Nc3ccccc3)C2=O)cc1`, the AC50 under setting [1] was 22.4 µM [falling, single point].

As for `O=C1CN(C(=O)COC(=O)[C@@H]2CC(O)CN2S(=O)(=O)c2ccc(Cl)cc2)c2ccccc2N1` (stereo partly drawn), the AC50 under setting [1] is 4.11 µM [rising, partial curve, poor fit]. As for `O=C(NC(=S)NCCC1=CCCCC1)c1ccccc1Br`, the AC50 under setting [1] is 0.1 µM [rising, full curve, poor fit]. Same read-out and setting: as for `O=C(Cc1ccccc1)NCC(=O)OCC(=O)c1ccc(Cl)c([N+](=O)[O-])c1`, the figure is 29.1 µM [falling, single point]; as for `Cc1ccc(C(=O)OCc2nc3ccsc3c(=O)[nH]2)o1`, 20.6 µM [falling, partial curve]. Regarding `COc1ncnc2c1sc1nc(-c3ccccc3)c3c(c12)CCCC3`, the AC50 under setting [1] was 0.58 µM [rising, full curve, poor fit]. Same read-out and setting: next, `Nc1nc(CSc2ncn(-c3ccccc3)n2)cs1`: 18.4 µM [falling, single point]; `FC(F)Sc1ccc(NC(=S)N2CCN(c3ccccn3)CC2)cc1`: 15.8 µM [falling, single point]; `O=C(Cc1cn(Cc2cccc(Cl)c2)c2ccccc12)N1CCCCCC1`: 2.31 µM [falling, partial curve, poor fit]. Same read-out and setting: as for `CCOC(=O)c1sc(NC(=O)c2ccc(S(=O)(=O)N(CC)CC)cc2)nc1C`, the figure is 1.46 µM [falling, full curve]. Still for that read-out and setting: as for `COc1ccc(NC(=O)c2sc(N3CCOCC3)nc2-c2ccccc2)c(OC)c1`, the figure is 8.2 µM [falling, partial curve]; as for `COc1ccc(CCNC(=O)C2Cc3ccccc3C(=O)O2)cc1` (stereo not drawn), 11.2 µM [falling, single point]. For the compound `COc1ccc(C)cc1NS(=O)(=O)c1ccc2c(c1)NC(=O)C(C)S2` (stereo not drawn), the half-maximal activity concentration (AC50) under setting [1] was 35.5 µM [falling, single point]. As for `COc1ccc([C@H]2CC(=O)C=C(c3ccc(-c4ccccc4)c(F)c3)C2)cc1OC`, under setting [1], the AC50 was 0.58 µM [rising, full curve, poor fit]. The same measure, in the same setting: next, `COc1cccc(N2CCN(C(=O)c3cc(-c4ccc(F)cc4)[nH]c3C)CC2)c1`: 3.55 µM [falling, full curve, poor fit].
